Measured values reported in PubChem BioAssay AID1794845 (National Center for Advancing Translational Sciences (NCATS), 2023).
In all, about 6,900 compounds went through this assay and fewer than 10 were called active. Calls follow the shape of the dose curve; as a rule, active = well fitted curve in the direction sought with a large enough effect; inconclusive = small, poorly fitted or top-dose-only effect, or another doubt; inactive = no such curve, though single readings can be large or run the other way. This is one part of the list.

Amino acid sequences for entries named in this document (tags omitted). A change or cut given only in a name is not applied to a line headed by its entry.
UniProt C7C422: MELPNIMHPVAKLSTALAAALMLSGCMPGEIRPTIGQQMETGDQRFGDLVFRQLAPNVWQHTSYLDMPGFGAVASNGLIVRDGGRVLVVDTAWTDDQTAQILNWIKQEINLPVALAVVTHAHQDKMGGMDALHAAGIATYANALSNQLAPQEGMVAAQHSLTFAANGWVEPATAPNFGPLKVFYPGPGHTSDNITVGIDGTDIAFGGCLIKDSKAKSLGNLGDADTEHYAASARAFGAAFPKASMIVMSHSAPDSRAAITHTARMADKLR

Biological target: Metallo-beta-lactamase type 2 (Klebsiella pneumoniae) (UniProt C7C422)
Experiment: qHTS to identify inhibitors of the New Delhi Metallo-beta-lactamase (NDM): primary screen against the NCATS Gemini Collection; also: % of control where 0% means no effect
Conditions: NDM-1 enzyme, meropenem hydrolysis, absorbance 300 nm; at 38.4 µM (top of the series) unless noted
Method in brief: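 Meropenem hydrolysis (50 uM final) by 2 nM NDM-1 read as 300 nm absorbance after 30 min, following >30 min compound–enzyme preincubation in HEPES pH 7.0 with 1 uM ZnSO4 and 0.01% Tween20.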

Activity % (negative = inhibition), inactive:
CNC(=O)c1noc(CN2CCCC(CCc3ccccc3F)C2)n1 (centres undefined) 6.21%
CCN(CC)C(=O)[C@@H]1CCC[C@@H](NC2CCOCC2)CN(C)C(=O)C1 13% [at 57.5 µM]
CN(C)C(=O)CO[C@H]1COCCN(Cc2ccccn2)C1 7.83% [at 57.5 µM]
O=C(c1ccccc1F)N1CCC(N2CCCOC2=O)CC1 -0.708%
O=C1c2ccccc2OCC2(CCN([S+](=O)([O-])c3ccccc3)C2)N1[S+](=O)([O-])c1ccccc1 (centres undefined) 0.293%
O=C(c1ccc2ncccc2c1)N1CCC(c2nc(CCOCC3CCOCC3)no2)C1 (centres undefined) 10.6%
O=C(O)CC1(CC(=O)N[C@H]2C[C@@](O)(C(=O)N[C@H]3CCCNC3=O)C[C@@H](O)[C@@H]2O)CCCC1 -3.73%
COc1ccc(CC2(CO)CCNCC2)cc1 -1.07%
Cc1noc(C)c1CC(=O)N(C)C1CCc2nnc(C)n2CC1 (centres undefined) -9.75%
COc1cccc(CN2CCC3(CCC3OC)CC2)c1 (centres undefined) 4.72%
C[C@@H](NC(=O)C1=C[C@@H](NC(=O)Nc2ccccc2Br)[C@@H](O)[C@H](O)C1)C(N)=O 13.8%
CCN1CCC(N2CC[C@H](CO)[C@H](N(C)C)C2)CC1 -5.7%
Cc1ccc(SC2CCN(Cc3nc(CCc4ccccc4)no3)CC2)cc1 0.997%
OC1CCOC2(CCN(Cc3ccc4cc[nH]c4c3)CC2)C1 (centres undefined) -1.25%
CS(=O)(=O)N1CCC(C2CCN(C(=O)NC3CCCC3)C2)CC1 (centres undefined) 5.27%
O=C(NCCc1ccccn1)c1cccnc1OC1CCNCC1 13.9%
c1ccc(CNc2ncc(CN3CCC4(CCNCC4)C3)cn2)cc1 -3.89%
C[C@@H]1CN(C(=O)c2ccc3c(c2)N(C)C(=O)CO3)C[C@@]1(O)C1CCC1 0.651%
CCCOCCNC(=O)c1c(C)noc1-c1ccc(OC(F)(F)F)cc1 4.3%
Cc1cc(C(=O)N[C@H]2[C@H](O)[C@H](O)C[C@@H]2c2cccnc2)n(C)n1 4.06% [at 57.5 µM]
CC(=O)Nc1ccc(CC(=O)N2CCC3(CCc4nn(Cc5ccccc5)c(=O)n4CC3)CC2)cc1 0.901%
C[C@]1(O)CCN(C(=O)c2cccc(Cn3cccn3)c2)C[C@@H]1O -2.01%
CC[C@@]1(O)CCN(C(=O)c2ccccc2OCc2ccccc2)C[C@H]1O -1.54%
CN(C(=O)c1cccn1C)C1CCc2nn(C)c(=O)n2CC1 (centres undefined) 0.156%
O=S(=O)(c1ccccc1F)N1CC(c2nc(Cc3ccccc3)no2)C1 -6.66%
CN(CC(=O)N1CCC(CCOc2ccc(F)cc2)C1)S(=O)(=O)c1ccc2c(c1)oc(=O)n2C (centres undefined) 14%
c1ccc(-c2nnc([C@H]3CCN(C4CCC4)C3)o2)cc1 1.04% [at 77.1 µM]
O=C(Cc1cccs1)NC1CC(c2cc(N3CCC(O)C3)ncn2)C1 (centres undefined) 4.08%
Cc1ccc(CN2C(=O)[C@@H]3C[C@@H](O)CN3C3(CN(Cc4ccccc4Cl)C3)C2=O)o1 0.511% [at 57.5 µM]
CN1C[C@H]2CN(Cc3c[nH]c4ccccc34)CCN2C1=O 19.1% [at 77.1 µM]
NC(=O)[C@@H]1C[C@H](Oc2cccnc2)CN1C(=O)C1CCCCC1 1.04%
CN1CCCN(C(=O)CN2CC3CC(C2)[C@H]2CCCC(=O)N2C3)CC1 (some centres undefined) -3.3%
CCc1cc(C(=O)N2CC[C@@H]3[C@@H](CCC(=O)N3CCN)C2)n(C)n1 44.1%
Cc1ccc(C(=O)N2C[C@@H](F)C[C@H]2C(=O)N2CCOCC2)cc1 4.66%
O=C(O)Cn1nc(C2CCOCC2)nc1C1CNC(=O)C1 (centres undefined) 17.7%
O=C1NCCOCCN(S(=O)(=O)c2ccc3c(c2)CCC3)[C@@H]2CCCC[C@H]12 18.1%
COc1ccc(OCC2CN(Cc3cccs3)[S+](=O)([O-])c3cccnc3O2)cc1 (centres undefined) -2.36% [at 16.1 µM]
CN1CCN(C(=O)c2cc(-c3cccnc3)nc3c2cnn3C)CC1 19.9% [at 57.5 µM]
O=C1N(Cc2ccccc2F)CCOC12CCN([S+](=O)([O-])c1cccnc1)CC2 6.14% [at 57.5 µM]
COc1ccc(NC(=O)c2ccc3c(c2)N(C(=O)c2ccc(OC)cc2)CC3)cc1 7.55%
Cc1cc(C(=O)N2c3ccccc3CC2c2nnc(C(C)C)o2)nn1C (centres undefined) 11.8%
Cc1ccc(C(=O)N2CCC(N3C(=O)CCC3C(=O)NCc3cccnc3)CC2)cc1F (centres undefined) -0.65%
CCCN(Cc1nccn1C)C(=O)c1cn(Cc2ccc(F)cc2)nn1 2.46%
COc1ccc(OC)c(NC(=O)Cc2cccn2-c2ccc(Cl)cc2)c1 0.779%
Cc1ccc(-c2cc3n(n2)CCCN(C(=O)c2cc(CN4CCOCC4)on2)C3)o1 17.7%
CS(=O)(=O)NC1CCN(Cc2cc(=O)c3cc(C(N)=O)ccc3[nH]2)CC1 5.24%
COc1ccccc1/C=C/CN1CCn2nc(CO)cc2C1 19.3%
Cc1cccc(CCN2CCC3(CC2)C(C(=O)O)CC(=O)N3C)n1 (centres undefined) -5.02%
Cc1cnc(C2CCOCC2)n1CCN 39.8%
CC1CCN(C(=O)C2(c3ccc(NC(=O)C4CC4)cc3)CCCCC2)CC1 2.62%
CC1CCCCN1C(=O)C1COC2(CCN(C(=O)c3ccco3)CC2)N1C(=O)c1ccccc1 (centres undefined) -1.45%
COc1ccccc1CCC(=O)N1CC(C(=O)N(C)C)C2(CCOCC2)C1 (centres undefined) -0.28%
O[C@H]1CC[C@@H](Cc2cc(-c3ccccn3)on2)O[C@@H]1CN(Cc1ccccc1)Cc1ccccc1 -1.45%
CN1C(=O)COC[C@@H]1[C@H](O)c1ccc(NC(=O)Nc2ccccc2)cc1 -2.29% [at 57.5 µM]

For convenience, part of the list above:
Activity % (negative = inhibition), inactive:
O=C(O)CC1(CC(=O)N[C@H]2C[C@@](O)(C(=O)N[C@H]3CCCNC3=O)C[C@@H](O)[C@@H]2O)CCCC1 -3.73%
COc1ccc(CC2(CO)CCNCC2)cc1 -1.07%
Cc1noc(C)c1CC(=O)N(C)C1CCc2nnc(C)n2CC1 (centres undefined) -9.75%
COc1cccc(CN2CCC3(CCC3OC)CC2)c1 (centres undefined) 4.72%
C[C@@H](NC(=O)C1=C[C@@H](NC(=O)Nc2ccccc2Br)[C@@H](O)[C@H](O)C1)C(N)=O 13.8%
CCN1CCC(N2CC[C@H](CO)[C@H](N(C)C)C2)CC1 -5.7%
Cc1ccc(SC2CCN(Cc3nc(CCc4ccccc4)no3)CC2)cc1 0.997%
OC1CCOC2(CCN(Cc3ccc4cc[nH]c4c3)CC2)C1 (centres undefined) -1.25%
CS(=O)(=O)N1CCC(C2CCN(C(=O)NC3CCCC3)C2)CC1 (centres undefined) 5.27%
O=C(NCCc1ccccn1)c1cccnc1OC1CCNCC1 13.9%
c1ccc(CNc2ncc(CN3CCC4(CCNCC4)C3)cn2)cc1 -3.89%
C[C@@H]1CN(C(=O)c2ccc3c(c2)N(C)C(=O)CO3)C[C@@]1(O)C1CCC1 0.651%
